The text below walks through data of PubChem BioAssay AID445 (National Center for Advancing Translational Sciences (NCATS), 2006).

What is called AC50 is the midpoint of the concentration-response curve, whichever way the signal moves.

This is one part of the list. The main result of the screen is listed elsewhere. These columns were measured beside it and carry no call. The list favours compounds with an active or inconclusive main result. The note in brackets gives the kind of curve behind each potency; many fits are weak.

The nature of the test: IkB Signaling. The conditions noted are these: ABC-DLBCL IkBa-CBG/CBR dual luciferase ratio (green luciferase fused to IkBa over red control in OCI-Ly3 lymphoma cells), 4 h. The essentials: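 Luminescence ratio of IκBα-fused green versus native red beetle luciferase in OCI-Ly3 cells, 4 h post-doxycycline with compound; red signal alone, scaled from basal (0%) to zero light (-100%), flagged nonspecific or cytotoxic effects.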
Setting [1] is: measured here: control luc red channel unless noted.
Setting [2] is: measured here: IkB-luc green channel.
Setting [3] is: measured here: control luc red channel.

In the case of `O=C(CSC1=Nc2ccccc2N=C(c2ccc(F)cc2)C1)Nc1cc(F)ccc1F`, the concentration at half-maximal activity (AC50) under setting [1] was 3.16 µM [falling, single point].

On to `COc1ccccc1CCNC(=O)c1cc2ccccn2n1`, for which, under setting [1], the AC50 was 15.8 µM [falling, partial curve].

In the case of `CCCN1C(=O)CN(C2CCCCCC2)C(=O)C1c1ccc(OCC)c(OC)c1` (configuration not stated), the AC50 under setting [1] was 1.26 µM [rising, partial curve].

Turning to `COc1ccc(CNC(=O)C2COc3ccccc3O2)c(OC)c1` (configuration not stated), the AC50 under setting [1] was 20 µM [falling, partial curve].

`CCOc1ccccc1CNC(=O)CCCn1nc(C)c2sc3ccccc3c2c1=O`: under setting [1], the AC50 was 15.8 µM [falling, partial curve].

For `COc1cc(NC(=O)Cn2nc(C(F)(F)F)c3c2CCCC3)cc(OC)c1OC`, under setting [1], the concentration at half-maximal activity (AC50) was 20 µM [falling, single point].

For the compound `O=C1C(C=NCc2ccco2)=C(O)c2ccccc21`, the AC50 under setting [1] is 12.6 µM [falling, partial curve].

On to `O=C(Nc1ccc(F)cc1F)c1cc2ccc3cccnc3c2[nH]1`, for which the AC50 under setting [1] was 0.158 µM [falling, partial curve].

`CCOC(=O)c1ccc(NC(=O)c2c(NCc3cccc(OC)c3)sc3c2CCC3)cc1`: under setting [1], the AC50 is 7.94 µM [rising, single point].

Take `Cn1cc(S(=O)(=O)N2CCCCCC2)cc1C(=O)Nc1ccccc1F`: under setting [1], the AC50 is 10 µM [falling, partial curve].

Consider `CN1CCN(C(=O)c2cc(-c3ccccc3)on2)CC1`, for which the AC50 under setting [1] was 12.6 µM [falling, partial curve].

In the case of `COc1ccc2oc(-c3ccc(C)c(NC(=O)c4sc5ccccc5c4Cl)c3)nc2c1`, under setting [1], the AC50 is 39.8 µM [falling, partial curve, poor fit].

Turning to `CCc1cc2c(N3CCN(c4nnc(CC)s4)CC3)ncnc2s1`, the AC50 under setting [1] is 15.8 µM [falling, partial curve].

On to `COc1ccc2c(Cc3c4ccccc4cc4ccccc34)cncc2c1O`, for which the AC50 under setting [1] is 3.98 µM [rising, partial curve] [measured here: IkB-luc green channel].

With `COc1cccc(C(=O)NCC(c2ccc(N(C)C)cc2)N2CCc3ccccc32)c1OC` (configuration not stated), the AC50 under setting [1] was 31.6 µM [falling, single point].

`COc1cccc(-c2nn(C)c3sc(C(=O)NCc4ccc(C)cc4)cc23)c1`: the AC50 under setting [1] is 3.98 µM [falling, full curve].

With `CCOc1ccc(NS(=O)(=O)c2ccc3[nH]cc(C(=O)NC(C)CC)c(=O)c3c2)cc1` (configuration not stated), the AC50 under setting [1] was 15.8 µM [falling, partial curve].

As to `Cc1ccc(NC(=O)CSc2ncc3c(n2)-c2ccccc2N(C)S3(=O)=O)c(Cl)c1`, the AC50 is 3.16 µM [rising, single point] under setting [2] and 1.26 µM [rising, full curve] under setting [3].

Take `CCC(CC)C(=O)Nc1cccc(-c2nc3ncccn3c2C)c1`: the AC50 under setting [1] is 39.8 µM [falling, single point].

Regarding `Cc1cccc(/C=C\c2ccccc2)n1`, the AC50 under setting [1] was 3.16 µM [rising, partial curve].

In the case of `CCC1CN(C(=O)N2CCC(C(=O)NCCCc3ccccc3)CC2)c2ccccc2O1` (configuration not stated), the AC50 under setting [1] was 15.8 µM [falling, partial curve].

Take `Cc1cccc(-c2noc(CCC(=O)Nc3ccccc3)n2)c1`: the AC50 under setting [1] was 25.1 µM [falling, partial curve].

As for `COc1cccc(C(=O)Nc2cccc(-c3nnc(-c4ccccc4)o3)c2)c1`, under setting [1], the AC50 was 10 µM [falling, partial curve].

In the case of `CCN1CCN(c2cc(C)c3cc(NC(=O)c4cc(Br)ccc4Cl)ccc3n2)CC1`, the AC50 under setting [1] is 39.8 µM [falling, single point].

Take `CCCC12CN3CC(C)(CN(C1)C3c1cn(CC)c3ccccc13)C2=O` (configuration not stated): the AC50 under setting [1] was 39.8 µM [falling, single point].

`CCOC(=O)c1c(C)[nH]c(CCC(=O)Nc2ccccc2OCC)c1C`: the AC50 under setting [1] was 31.6 µM [falling, partial curve].

Regarding `O=C(NCc1nc2ccccc2[nH]1)c1ccc(Cl)c(S(=O)(=O)N2CCCC2)c1`, the AC50 under setting [1] was 6.31 µM [rising, single point] [measured here: IkB-luc green channel].

`O=C(NCc1ccccc1Cl)c1ccc2nc(Cc3ccccc3)oc2c1`: under setting [1], the AC50 is 31.6 µM [falling, single point].

As for `CCC(=O)N1c2ccccc2CC1C(=O)NCCN1CCN(c2cccc(Cl)c2)CC1` (configuration not stated), the AC50 under setting [1] is 20 µM [falling, partial curve].

`COc1cccc(-c2nnc(NC(=O)c3ccc(S(=O)(=O)N4CC(C)OC(C)C4)cc3)o2)c1` (configuration not stated): the AC50 runs as follows: under setting [2], 31.6 µM [rising, single point]; under setting [3], 3.98 µM [falling, partial curve].

`CC1(C)Cc2c(C#N)c(N3CCCC3)nc(-c3ccco3)c2CO1`: under setting [1], the AC50 is 10 µM [falling, partial curve].

Take `COc1ccc(C(=O)Nc2cc3cc(Cl)ccc3oc2=O)cc1OC`: the AC50 under setting [1] was 3.16 µM [rising, full curve].

Regarding `Cc1cccc2c1-c1sc(C(=O)Nc3ccccc3C(N)=O)cc1CO2`, under setting [1], the AC50 was 0.0158 µM [falling, full curve].

As for `Cc1ccccc1OCC(=O)NCC(c1ccc(Cl)cc1)N1CCOCC1` (configuration not stated), the AC50 under setting [1] is 31.6 µM [falling, single point].

As for `Cc1cc(C)cc(NC(c2cccc(Cl)c2)c2nnc(-c3ccccc3)o2)c1` (configuration not stated), the AC50 under setting [1] was 39.8 µM [falling, single point].

As to `O=C(Nc1cccc2cccnc12)c1cccc2c(Br)cccc12`, the AC50 under setting [1] was 0.316 µM [rising, full curve].

For `CCc1cc2c(cc3c(=O)n(CC(=O)NC4CCC(C)CC4)nc(CC)n32)s1` (configuration not stated), the AC50 under setting [1] is 5.01 µM [rising, single point].

As for `COc1ccc(-n2c(Cc3ccccc3)nnc2SCc2nc(-c3ccccc3C)no2)cc1`, under setting [1], the AC50 is 25.1 µM [falling, single point].

Consider `Cc1ccc2onc(CNC(=O)N(C)Cc3ccccc3)c2c1`, for which, under setting [1], the AC50 is 39.8 µM [rising, partial curve, poor fit].

With `CCOC(=O)c1ccc(NC(=O)c2cccc3c(=O)c4c([nH]c23)CCCC4)cc1`, under setting [1], the AC50 is 0.316 µM [rising, full curve].

On to `O=C1c2[nH]nc(-c3ccccc3O)c2C(c2cccc(Br)c2)N1Cc1ccncc1` (configuration not stated), for which the AC50 under setting [1] is 25.1 µM [falling, partial curve].

As to `O=C(Nc1ccc(Br)cc1F)c1ccc2nc(CCc3ccccc3)oc2c1`, the AC50 under setting [1] is 25.1 µM [falling, single point].

Consider `Cc1cc2cc(CN(Cc3ccc4c(c3)OCO4)C(=O)c3ccco3)c(=O)[nH]c2cc1C`, for which the AC50 is, setting by setting: under setting [2], 31.6 µM [falling, partial curve]; under setting [3], 20 µM [falling, partial curve].

Turning to `CCCN(CCC)c1nc(NC2CCN(C(=O)OCC)CC2)nc(OC)n1`, the AC50 under setting [1] was 12.6 µM [falling, partial curve].

For `CC1N=C2c3ccccc3N=C(SCC(=O)NCc3ccc(Cl)cc3)N2C1=O` (configuration not stated), the AC50 under setting [1] was 10 µM [falling, partial curve].

As to `COc1cccc(-c2n[nH]c3c2C(c2cccc(O)c2)N(C)C3=O)c1` (configuration not stated), the AC50 under setting [1] was 20 µM [falling, partial curve].

In the case of `Cc1cc(C)c2ccc(N)nc2c1O`, the AC50 is, setting by setting: under setting [2], 15.8 µM [rising, single point]; under setting [3], 6.31 µM [rising, single point].

`CCOc1cc(C)c(Cl)cc1S(=O)(=O)NCc1ccc2c(c1)OCO2`: the AC50 under setting [1] is 15.8 µM [falling, partial curve].

For `O=C(c1ccccc1C(=O)N1CCN(c2ccccc2F)CC1)N1CCN(c2ccccc2F)CC1`, the AC50 under setting [1] was 3.98 µM [falling, full curve].

Take `COc1ccc(CNC(=O)c2cnn(-c3ccc(OC)cc3)c2C2CCN(C(=O)OC(C)(C)C)CC2)cc1`: the AC50 under setting [1] is 39.8 µM [falling, single point].

Regarding `Cc1c2cnn(-c3ccccc3)c(=O)c2c(C)n1CC(=O)N1CCN(c2cccc(Cl)c2)CC1`, the AC50 under setting [1] was 25.1 µM [falling, partial curve].

On to `Cc1cc(C)c(S(=O)(=O)Nc2ccc(-c3ccc(N4CCCCC4)nn3)cc2)c(C)c1`, for which the AC50 under setting [1] was 6.31 µM [falling, full curve].

For `COCCCNC(=O)CN1C(=O)COc2ccc(S(=O)(=O)N3CCOCC3)cc21`, the AC50 under setting [1] is 25.1 µM [falling, partial curve, poor fit].

`COc1cc(C2C(C#N)=C(C)NC3=C2C(=O)c2ccccc23)cc(OC)c1OC` (configuration not stated): the AC50 is 3.16 µM [rising, full curve, poor fit] under setting [2] and 0.794 µM [rising, full curve, poor fit] under setting [3].

With `COC(=O)CSCc1nc(-c2ccc(C(=O)OC)cc2)oc1C`, the concentration at half-maximal activity (AC50) under setting [1] was 12.6 µM [falling, partial curve].

As to `O=C(CCNS(=O)(=O)c1cccc2nonc12)Nc1ccc(F)cc1`, the AC50 under setting [1] is 12.6 µM [falling, partial curve].

For the compound `COC(=O)c1cccc(Nc2c(-c3ccc(O)cc3)nc3nc[nH]n23)c1`, the AC50 under setting [2] is 31.6 µM [rising, partial curve] and the AC50 under setting [3] is 31.6 µM [rising, partial curve].

As to `COCCn1c(=NC(=O)CSC(C)=O)sc2cc(F)ccc21`, the AC50 under setting [1] is 25.1 µM [falling, single point].

As to `CCOC(=O)c1cc(-c2ccccc2)n(-c2cccc(C(=O)NC(C)CC)c2)c1C` (configuration not stated), the AC50 under setting [1] is 31.6 µM [falling, single point].

Turning to `Cc1ccc(N(C)S(=O)(=O)c2ccc(-c3cnc(C4CC4)o3)cc2)cc1`, under setting [1], the AC50 was 3.16 µM [rising, single point].

For `CCn1c(CN2CCCCC2)nc2cc(NC(=O)COc3cc(C)ccc3C(C)C)ccc21`, the AC50 under setting [1] was 12.6 µM [falling, partial curve].
